The other results are listed elsewhere or left out.
Assays:
Test in all cases: log2 fold change, soluble protein after heating vs DMSO (PISA); higher = thermal stabilisation; K562 cells, 10 uM, 30 min; active = over 0.2 and 3.5 SD of the protein, either way, in both replicates (recomputed)
[1] = compound: COC1=CC=C(C=C1)CN2C=CC3=C2C=C(C=C3)C(=O)NO
Summary of the method: (§1)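 Quantification of soluble protein used TMTpro 16plex LC-MS/MS, with channel sums equalised. Samples were the supernatant after 21,000xg for 90 min of pooled aliquots from K562 cells (2×10^6 cells/mL) treated with 10 μM compound for 30 min, heated for 3 min over 48°C-58°C, and extracted in PBS with 0.5% NP-40 at 4°C. Values, from duplicates, describe thermal stability against control samples on a log2 fold-change scale.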

By UniProt entry, the sequences of proteins in these tests, tags left out. Where a name states a change or a piece, a line headed by the entry shows the natural chain unless it says otherwise.
UniProt P23434: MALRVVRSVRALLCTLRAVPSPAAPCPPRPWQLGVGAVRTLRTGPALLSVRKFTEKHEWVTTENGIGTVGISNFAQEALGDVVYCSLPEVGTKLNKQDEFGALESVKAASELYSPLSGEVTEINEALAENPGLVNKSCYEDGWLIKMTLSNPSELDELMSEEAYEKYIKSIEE
UniProt Q9UJ14: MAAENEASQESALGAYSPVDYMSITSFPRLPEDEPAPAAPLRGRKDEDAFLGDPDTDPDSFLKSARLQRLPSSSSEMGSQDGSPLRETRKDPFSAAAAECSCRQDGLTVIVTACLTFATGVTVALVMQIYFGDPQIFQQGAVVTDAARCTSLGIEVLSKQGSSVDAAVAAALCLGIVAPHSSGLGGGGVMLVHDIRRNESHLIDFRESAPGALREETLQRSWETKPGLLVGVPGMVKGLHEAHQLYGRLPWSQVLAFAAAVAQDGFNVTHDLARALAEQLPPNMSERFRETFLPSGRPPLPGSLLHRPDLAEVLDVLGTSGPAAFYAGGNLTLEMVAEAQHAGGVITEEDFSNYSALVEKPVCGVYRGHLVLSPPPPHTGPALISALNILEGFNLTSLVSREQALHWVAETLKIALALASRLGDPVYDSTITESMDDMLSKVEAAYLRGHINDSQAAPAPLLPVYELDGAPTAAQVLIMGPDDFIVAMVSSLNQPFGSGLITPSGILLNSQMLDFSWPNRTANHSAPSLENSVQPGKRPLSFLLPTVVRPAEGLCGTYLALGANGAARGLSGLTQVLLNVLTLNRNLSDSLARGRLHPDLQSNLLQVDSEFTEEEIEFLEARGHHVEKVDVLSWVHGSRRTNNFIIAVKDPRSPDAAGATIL
UniProt P35637: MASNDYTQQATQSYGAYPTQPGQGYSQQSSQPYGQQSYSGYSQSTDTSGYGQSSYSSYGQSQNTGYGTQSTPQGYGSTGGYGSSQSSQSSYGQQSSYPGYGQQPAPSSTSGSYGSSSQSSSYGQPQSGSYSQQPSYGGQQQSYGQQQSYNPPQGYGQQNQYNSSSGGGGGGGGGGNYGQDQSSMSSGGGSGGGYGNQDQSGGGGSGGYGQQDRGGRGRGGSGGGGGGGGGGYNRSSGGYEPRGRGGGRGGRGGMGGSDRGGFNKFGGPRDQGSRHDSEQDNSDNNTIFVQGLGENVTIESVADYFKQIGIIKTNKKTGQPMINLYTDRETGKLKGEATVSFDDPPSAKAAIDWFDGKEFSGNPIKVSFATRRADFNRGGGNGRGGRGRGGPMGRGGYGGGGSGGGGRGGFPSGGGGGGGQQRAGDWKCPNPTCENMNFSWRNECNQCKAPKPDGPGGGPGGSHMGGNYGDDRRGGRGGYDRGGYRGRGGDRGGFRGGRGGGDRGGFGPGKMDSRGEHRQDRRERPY
UniProt P34059: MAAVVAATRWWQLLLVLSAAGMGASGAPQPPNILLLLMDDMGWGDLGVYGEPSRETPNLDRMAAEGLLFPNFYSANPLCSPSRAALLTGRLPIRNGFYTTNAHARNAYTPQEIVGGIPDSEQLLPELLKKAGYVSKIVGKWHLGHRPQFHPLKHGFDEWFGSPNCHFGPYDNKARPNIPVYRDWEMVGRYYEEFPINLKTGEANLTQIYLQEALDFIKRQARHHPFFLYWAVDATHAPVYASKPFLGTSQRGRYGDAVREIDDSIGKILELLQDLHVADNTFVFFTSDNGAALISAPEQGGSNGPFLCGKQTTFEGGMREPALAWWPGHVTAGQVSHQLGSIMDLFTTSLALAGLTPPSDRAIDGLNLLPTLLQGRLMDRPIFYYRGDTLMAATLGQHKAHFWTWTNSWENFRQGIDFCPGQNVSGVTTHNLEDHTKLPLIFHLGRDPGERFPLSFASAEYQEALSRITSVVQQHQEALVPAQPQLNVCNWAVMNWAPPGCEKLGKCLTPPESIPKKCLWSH
UniProt Q495W5: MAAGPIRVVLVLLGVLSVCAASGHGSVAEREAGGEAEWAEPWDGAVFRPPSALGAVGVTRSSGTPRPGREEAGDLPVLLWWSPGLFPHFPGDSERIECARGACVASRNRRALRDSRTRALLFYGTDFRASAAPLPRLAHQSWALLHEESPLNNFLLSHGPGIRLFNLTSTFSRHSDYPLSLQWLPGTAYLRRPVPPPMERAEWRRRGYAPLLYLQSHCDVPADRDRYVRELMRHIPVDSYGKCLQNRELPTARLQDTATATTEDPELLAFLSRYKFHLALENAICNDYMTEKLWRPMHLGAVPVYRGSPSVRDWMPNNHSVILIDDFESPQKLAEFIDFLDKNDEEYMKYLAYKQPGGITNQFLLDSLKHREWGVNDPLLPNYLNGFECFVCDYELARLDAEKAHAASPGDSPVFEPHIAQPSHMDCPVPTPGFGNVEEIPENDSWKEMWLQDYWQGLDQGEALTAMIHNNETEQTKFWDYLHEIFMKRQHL
UniProt P04066: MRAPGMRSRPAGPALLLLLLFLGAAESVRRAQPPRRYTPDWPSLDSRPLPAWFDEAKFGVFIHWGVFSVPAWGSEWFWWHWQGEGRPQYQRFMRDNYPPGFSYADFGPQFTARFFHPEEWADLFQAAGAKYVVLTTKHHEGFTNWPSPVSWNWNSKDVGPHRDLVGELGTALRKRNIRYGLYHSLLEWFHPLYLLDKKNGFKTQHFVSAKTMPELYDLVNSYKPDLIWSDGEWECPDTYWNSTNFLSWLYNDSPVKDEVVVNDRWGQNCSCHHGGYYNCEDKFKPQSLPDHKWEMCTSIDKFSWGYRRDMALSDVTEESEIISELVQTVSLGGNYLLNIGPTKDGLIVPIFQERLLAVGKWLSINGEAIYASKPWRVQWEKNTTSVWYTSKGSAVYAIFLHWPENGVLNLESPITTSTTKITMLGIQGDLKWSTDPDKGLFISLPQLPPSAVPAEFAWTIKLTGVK
UniProt Q8N2G8: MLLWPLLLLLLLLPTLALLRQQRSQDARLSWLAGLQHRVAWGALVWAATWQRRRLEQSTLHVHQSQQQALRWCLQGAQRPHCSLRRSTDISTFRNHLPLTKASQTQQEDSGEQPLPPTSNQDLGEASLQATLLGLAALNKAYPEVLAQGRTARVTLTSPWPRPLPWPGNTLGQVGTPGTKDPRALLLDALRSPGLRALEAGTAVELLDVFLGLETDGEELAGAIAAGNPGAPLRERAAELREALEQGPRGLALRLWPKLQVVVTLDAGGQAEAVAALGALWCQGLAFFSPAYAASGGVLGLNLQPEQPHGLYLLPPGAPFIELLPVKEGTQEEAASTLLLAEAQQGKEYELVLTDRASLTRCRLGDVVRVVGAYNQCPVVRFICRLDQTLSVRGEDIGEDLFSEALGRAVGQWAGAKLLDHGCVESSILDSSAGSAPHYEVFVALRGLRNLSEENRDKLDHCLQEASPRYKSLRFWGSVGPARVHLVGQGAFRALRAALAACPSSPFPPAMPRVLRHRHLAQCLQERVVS
UniProt Q8N4A0: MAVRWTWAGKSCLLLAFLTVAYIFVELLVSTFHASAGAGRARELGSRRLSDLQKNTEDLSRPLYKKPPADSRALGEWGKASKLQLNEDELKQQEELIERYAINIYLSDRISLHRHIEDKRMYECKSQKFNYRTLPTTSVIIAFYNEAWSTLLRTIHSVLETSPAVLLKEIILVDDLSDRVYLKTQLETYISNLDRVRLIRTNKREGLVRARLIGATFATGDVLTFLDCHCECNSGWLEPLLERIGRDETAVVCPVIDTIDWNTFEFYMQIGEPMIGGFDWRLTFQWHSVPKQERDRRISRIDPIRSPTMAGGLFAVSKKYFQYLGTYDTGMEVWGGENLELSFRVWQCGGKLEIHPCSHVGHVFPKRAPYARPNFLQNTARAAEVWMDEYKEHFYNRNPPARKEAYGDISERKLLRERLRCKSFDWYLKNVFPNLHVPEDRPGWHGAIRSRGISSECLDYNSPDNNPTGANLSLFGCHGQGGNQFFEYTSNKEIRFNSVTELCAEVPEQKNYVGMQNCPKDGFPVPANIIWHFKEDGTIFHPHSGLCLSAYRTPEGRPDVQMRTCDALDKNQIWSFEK
UniProt P09958, whole entry, looked up: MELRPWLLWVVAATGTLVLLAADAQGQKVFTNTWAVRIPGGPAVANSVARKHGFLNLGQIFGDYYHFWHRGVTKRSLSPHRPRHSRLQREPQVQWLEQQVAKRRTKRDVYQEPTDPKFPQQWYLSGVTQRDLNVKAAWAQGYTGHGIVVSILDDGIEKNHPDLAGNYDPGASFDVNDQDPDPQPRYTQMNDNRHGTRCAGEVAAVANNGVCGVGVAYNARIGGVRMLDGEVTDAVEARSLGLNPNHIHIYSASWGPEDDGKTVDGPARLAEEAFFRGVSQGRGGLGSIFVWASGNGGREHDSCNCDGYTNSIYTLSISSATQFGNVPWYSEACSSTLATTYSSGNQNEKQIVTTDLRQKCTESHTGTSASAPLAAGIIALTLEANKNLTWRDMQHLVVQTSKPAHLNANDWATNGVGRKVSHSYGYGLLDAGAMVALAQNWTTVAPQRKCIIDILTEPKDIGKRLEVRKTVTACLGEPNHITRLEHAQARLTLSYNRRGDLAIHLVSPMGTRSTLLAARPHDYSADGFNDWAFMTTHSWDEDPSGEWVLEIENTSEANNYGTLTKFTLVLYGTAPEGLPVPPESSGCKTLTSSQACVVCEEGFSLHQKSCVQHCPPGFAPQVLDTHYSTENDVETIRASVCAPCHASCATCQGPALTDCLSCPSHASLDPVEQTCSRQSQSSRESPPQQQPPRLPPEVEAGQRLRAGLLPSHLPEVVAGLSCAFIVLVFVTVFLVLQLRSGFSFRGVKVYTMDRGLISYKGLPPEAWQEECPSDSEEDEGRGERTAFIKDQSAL
UniProt Q92820: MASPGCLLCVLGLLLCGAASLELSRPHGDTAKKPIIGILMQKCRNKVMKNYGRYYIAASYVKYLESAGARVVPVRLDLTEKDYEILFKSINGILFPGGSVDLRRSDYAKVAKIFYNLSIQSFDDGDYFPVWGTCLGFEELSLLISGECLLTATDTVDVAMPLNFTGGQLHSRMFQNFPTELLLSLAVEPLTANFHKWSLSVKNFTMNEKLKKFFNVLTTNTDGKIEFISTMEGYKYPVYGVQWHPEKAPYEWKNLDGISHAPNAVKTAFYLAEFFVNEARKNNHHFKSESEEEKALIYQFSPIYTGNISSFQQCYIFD
UniProt O75223: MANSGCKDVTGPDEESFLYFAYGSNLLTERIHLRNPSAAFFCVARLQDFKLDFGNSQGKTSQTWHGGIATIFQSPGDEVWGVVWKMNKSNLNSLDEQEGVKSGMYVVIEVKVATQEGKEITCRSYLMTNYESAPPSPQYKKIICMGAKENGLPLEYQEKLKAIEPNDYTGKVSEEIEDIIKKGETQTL
UniProt O14976: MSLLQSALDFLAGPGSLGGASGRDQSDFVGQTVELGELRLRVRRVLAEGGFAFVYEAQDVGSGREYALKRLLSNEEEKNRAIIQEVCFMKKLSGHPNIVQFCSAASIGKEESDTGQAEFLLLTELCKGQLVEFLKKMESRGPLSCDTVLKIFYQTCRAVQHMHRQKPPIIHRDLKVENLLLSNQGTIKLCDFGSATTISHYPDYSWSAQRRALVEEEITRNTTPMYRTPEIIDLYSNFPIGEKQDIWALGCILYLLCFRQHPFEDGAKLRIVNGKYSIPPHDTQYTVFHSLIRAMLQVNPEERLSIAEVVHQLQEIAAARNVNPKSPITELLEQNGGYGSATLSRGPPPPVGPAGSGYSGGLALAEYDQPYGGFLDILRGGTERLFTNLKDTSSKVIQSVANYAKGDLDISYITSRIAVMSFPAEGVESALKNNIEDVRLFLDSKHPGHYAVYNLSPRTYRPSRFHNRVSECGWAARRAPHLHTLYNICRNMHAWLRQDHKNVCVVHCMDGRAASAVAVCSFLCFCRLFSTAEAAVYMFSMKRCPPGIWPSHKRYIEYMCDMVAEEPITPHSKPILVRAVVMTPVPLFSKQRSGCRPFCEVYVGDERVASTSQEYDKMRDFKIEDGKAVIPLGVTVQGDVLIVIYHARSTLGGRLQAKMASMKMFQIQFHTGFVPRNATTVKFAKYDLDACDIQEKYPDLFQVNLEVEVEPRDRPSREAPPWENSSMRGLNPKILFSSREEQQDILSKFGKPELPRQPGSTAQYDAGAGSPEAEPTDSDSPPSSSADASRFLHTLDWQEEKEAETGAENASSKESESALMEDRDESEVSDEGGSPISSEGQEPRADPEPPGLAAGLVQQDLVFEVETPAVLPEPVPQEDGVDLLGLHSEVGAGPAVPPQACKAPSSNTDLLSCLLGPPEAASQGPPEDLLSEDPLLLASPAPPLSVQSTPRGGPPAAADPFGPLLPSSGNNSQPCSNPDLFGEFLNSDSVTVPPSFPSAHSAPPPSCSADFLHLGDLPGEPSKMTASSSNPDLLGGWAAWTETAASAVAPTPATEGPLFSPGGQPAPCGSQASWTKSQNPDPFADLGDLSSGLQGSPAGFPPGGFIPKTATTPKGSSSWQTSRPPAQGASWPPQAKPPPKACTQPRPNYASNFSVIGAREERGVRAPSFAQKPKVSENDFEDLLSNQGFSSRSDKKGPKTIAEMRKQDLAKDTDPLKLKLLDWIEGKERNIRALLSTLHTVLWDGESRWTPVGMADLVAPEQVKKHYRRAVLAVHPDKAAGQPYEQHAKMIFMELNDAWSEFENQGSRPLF

[2] = compound: CON(C)C(=O)N1N=C(c2cc(F)ccc2F)S[C@@]1(CCCN)c1ccccc1 [filanesib]
Summary of the method: as §1

[3] = compound: CO[C@H]1C[C@@H]2CC[C@@H](C)[C@@](O)(O2)C(=O)C(=O)N2CCCC[C@H]2C(=O)O[C@H]([C@H](C)C[C@@H]2CC[C@H](n3cnnn3)[C@H](OC)C2)CC(=O)[C@H](C)/C=C(\C)[C@@H](O)[C@@H](OC)C(=O)[C@H](C)C[C@H](C)/C=C/C=C/C=C/1C [zotarolimus]
Summary of the method: as §1

[4] = compound: COc1cc(C(=O)O)ccc1NC(=O)[C@@H]1N[C@@H](CC(C)(C)C)[C@](C#N)(c2ccc(Cl)cc2F)[C@H]1c1cccc(Cl)c1F [idasanutlin]
Summary of the method: as §1

[5] = compound: COc1cc(Nc2ncc3c(n2)-c2ccc(Cl)cc2C(c2c(F)cccc2OC)=NC3)ccc1C(=O)O [alisertib]
Summary of the method: as §1

[6] = compound: COc1cc2nc(-c3cc(F)ccc3O)nc(N[C@@H]3CNC[C@H]3C(C)(C)O)c2cc1OC
Summary of the method: as §1

[7] = compound: COc1cc2ncnc(Nc3ccc(F)c(Cl)c3)c2cc1OCCCN1CCOCC1 [gefitinib]
Summary of the method: as §1

[8] = compound: COc1cccc2cc(-c3nc([C@H]4CC[C@H](C(=O)O)CC4)n4ncnc(N)c34)[nH]c12
Summary of the method: as §1

[9] = compound: CS(=O)(=O)CCNCc1ccc(-c2ccc3ncnc(Nc4ccc(OCc5cccc(F)c5)c(Cl)c4)c3c2)o1 [lapatinib]
Summary of the method: as §1

[10] = compound: CS(=O)(=O)N1CCN(Cc2cc3nc(-c4cccc5[nH]ncc45)nc(N4CCOCC4)c3s2)CC1 [pictilisib]
Summary of the method: as §1

Measured: log2 fold change

FUBP1 isoform 2 (UniProt Q96AE4)
inactive: [1] -0.011 | [2] -0.016 | [3] -0.03 | [4] 0.001 | [5] -0.035 | [6] 0.04 | [7] 0.007 | [8] 0.045 | [9] -0.018 | [10] 0.015

GCSH (UniProt P23434)
inactive: [1] -0.086 | [2] -0.029 | [3] 0.014 | [4] -0.024 | [5] 0.154 | [6] 0.03 | [7] 0.003 | [8] 0.001 | [9] -0.028 | [10] -0.078

GGT7 (UniProt Q9UJ14)
inactive: [1] 0.044 | [2] 0.081 | [3] -0.03 | [4] -0.039 | [5] -0.07 | [6] -0.098 | [7] 0.055 | [8] 0.05 | [9] -0.062 | [10] 0.143

FUS (UniProt P35637)
inactive: [1] -0.045 | [2] 0.105 | [3] -0.022 | [4] 0.147 | [5] -0.097 | [6] 0.023 | [7] 0.016 | [8] 0.008 | [9] 0.075 | [10] -0.096

GALNT1 (UniProt Q10472)
inactive: [1] 0.224 | [2] 0.058 | [3] 0.005 | [4] -0.033 | [5] 0.047 | [6] 0.044 | [7] 0.066 | [8] 0.034 | [9] 0 | [10] 0.023

GALNS (UniProt P34059)
inactive: [1] 0.133 | [2] -0.094 | [3] 0.02 | [4] -0.043 | [5] -0.145 | [6] -0.051 | [7] 0.019 | [8] 0.043 | [9] 0.006 | [10] 0.042

GDAP1 (UniProt Q8TB36)
inactive: [1] -0.008 | [2] -0.014 | [3] -0.004 | [4] 0.017 | [5] -0.049 | [6] 0.001 | [7] 0.01 | [8] 0.05 | [9] -0.026 | [10] 0.138

FUT11 (UniProt Q495W5)
inactive: [1] -0.061 | [2] 0.035 | [3] -0.067 | [4] 0.113 | [5] -0.1 | [6] -0.12 | [7] -0.082 | [8] -0.052 | [9] 0.245 | [10] -0.221

GALNT5 (UniProt Q7Z7M9)
inactive: [1] 0.013 | [2] -0.049 | [3] 0.007 | [4] -0.076 | [5] -0.023 | [6] -0.01 | [7] 0.093 | [8] 0.022 | [9] 0.035 | [10] 0.007

FUCA1 (UniProt P04066)
inactive: [1] -0.014 | [2] -0.057 | [3] -0.025 | [4] -0.044 | [5] -0.004 | [6] -0.113 | [7] 0.003 | [8] 0.1 | [9] 0.047 | [10] 0

GHDC (UniProt Q8N2G8)
inactive: [1] -0.026 | [2] -0.127 | [3] 0.021 | [4] 0.061 | [5] -0.057 | [6] -0.13 | [7] 0.037 | [8] 0.087 | [9] 0.042 | [10] 0.042

GALNT4 (UniProt Q8N4A0)
inactive: [1] -0.029 | [2] 0.066 | [3] -0.017 | [4] -0.099 | [5] -0.015 | [6] 0.011 | [7] 0.025 | [8] 0.025 | [9] -0.028 | [10] 0.172

Reprinted from the listing (two entries):
FUCA1 (UniProt P04066)
inactive: [1] -0.014 | [2] -0.057 | [3] -0.025 | [4] -0.044 | [5] -0.004 | [6] -0.113 | [7] 0.003 | [8] 0.1 | [9] 0.047 | [10] 0

GHDC (UniProt Q8N2G8)
inactive: [1] -0.026 | [2] -0.127 | [3] 0.021 | [4] 0.061 | [5] -0.057 | [6] -0.13 | [7] 0.037 | [8] 0.087 | [9] 0.042 | [10] 0.042

Going on with the list:

FUBP1 (UniProt Q96AE4)
inactive: [1] 0.094 | [2] -0.078 | [3] 0.014 | [4] 0.117 | [5] -0.022 | [6] 0.05 | [7] 0.016 | [8] 0.1 | [9] 0.156 | [10] -0.198

FURIN (UniProt P09958)
inactive: [1] 0.014 | [2] 0.006 | [3] 0.015 | [4] -0.027 | [5] 0.108 | [6] 0.038 | [7] -0.015 | [8] 0.037 | [9] -0.088 | [10] 0.024

GGH (UniProt Q92820)
inactive: [1] -0.045 | [2] -0.033 | [3] -0.024 | [4] -0.021 | [5] -0.009 | [6] -0.008 | [7] -0.033 | [8] 0.057 | [9] 0.002 | [10] 0.034

GAPVD1 isoform 6 (UniProt Q14C86)
inactive: [1] 0.003 | [2] 0.033 | [3] 0.055 | [4] -0.021 | [5] 0.047 | [6] -0.048 | [7] -0.013 | [8] -0.068 | [9] 0.041 | [10] -0.025

FYCO1 isoform 4 (UniProt Q9BQS8)
inactive: [1] 0.017 | [2] 0.014 | [3] 0.037 | [4] -0.069 | [5] 0.087 | [6] -0.035 | [7] -0.09 | [8] -0.028 | [9] -0.01 | [10] -0.003

GCC2 (UniProt Q8IWJ2)
inactive: [1] -0.037 | [2] 0.137 | [3] 0.074 | [4] 0.065 | [5] -0.046 | [6] -0.037 | [7] 0.024 | [8] -0.11 | [9] 0.056 | [10] 0.014

FRG1 (UniProt Q14331)
inactive: [1] -0.212 | [2] 0.207 | [3] -0.017 | [4] 0.117 | [5] -0.044 | [6] 0.053 | [7] 0.012 | [8] -0.017 | [9] 0.039 | [10] -0.044

GBF1 (UniProt Q92538)
inactive: [1] -0.005 | [2] 0.038 | [3] 0.008 | [4] -0.037 | [5] -0.013 | [6] 0.025 | [7] -0.012 | [8] -0.054 | [9] -0.036 | [10] -0.036

GALE (UniProt Q14376)
inactive: [1] 0 | [2] -0.056 | [3] 0.003 | [4] -0.05 | [5] -0.001 | [6] -0.001 | [7] 0.05 | [8] 0.021 | [9] 0.007 | [10] 0.06

FTH1 (UniProt P02794)
inactive: [1] -0.111 | [2] 0.057 | [3] -0.019 | [4] 0.136 | [5] -0.061 | [6] -0.08 | [7] -0.071 | [8] -0.062 | [9] 0.02 | [10] -0.009

GGCT (UniProt O75223)
inactive: [1] -0.01 | [2] -0.094 | [3] 0.001 | [4] -0.075 | [5] 0.112 | [6] 0.012 | [7] 0.014 | [8] 0.031 | [9] -0.028 | [10] 0.114

GART (UniProt C9JZG2)
inactive: [1] -0.008 | [2] -0.03 | [3] -0.052 | [4] -0.157 | [5] 0.073 | [6] 0.141 | [7] 0.143 | [8] -0.087 | [9] -0.098 | [10] 0.11

FTSJ1 (UniProt Q9UET6)
inactive: [1] -0.091 | [2] -0.124 | [3] 0.006 | [4] -0.048 | [5] -0.125 | [6] 0.007 | [7] 0.03 | [8] 0.038 | [9] 0.007 | [10] 0.059

GBA (UniProt P04062)
inactive: [1] -0.021 | [2] 0.042 | [3] -0.052 | [4] 0.035 | [5] 0.3 | [6] -0.098 | [7] -0.014 | [8] -0.005 | [9] 0.013 | [10] 0.011

GFER (UniProt P55789)
inactive: [1] -0.181 | [2] -0.024 | [3] -0.011 | [4] -0.139 | [5] 0.078 | [6] -0.078 | [7] -0.015 | [8] -0.047 | [9] 0.029 | [10] 0.029

GAK (UniProt O14976)
inactive: [1] -0.013 | [2] 0.024 | [3] 0.033 | [4] -0.748 | [5] -0.025 | [6] 1.44 | [7] 0.84 | [8] -0.107 | [9] 0.143 | [10] 0.226

FSCN1 (UniProt Q16658)
inactive: [1] 0.094 | [2] -0.055 | [3] 0.008 | [4] -0.04 | [5] -0.067 | [6] -0.041 | [7] 0.021 | [8] -0.001 | [9] -0.014 | [10] 0.011

G6PD isoform 2 (UniProt P11413)
inactive: [1] -0.006 | [2] -0.117 | [3] 0.019 | [4] 0.002 | [5] -0.03 | [6] 0.043 | [7] 0.017 | [8] 0.013 | [9] -0.017 | [10] -0.003

Source: the supplement of paper PMC10849652
